For part of these data: One purity is given for all peptides; the source may state it once. No end group written: not given here.
Legend:
[1] = general procedure: Fmoc solid-phase peptide synthesis; Fmoc-protected Rink Amide NovaGel resin (0.7 mmol/g); Fmoc-protected Wang NovaGel resin (0.1 mmol/g); HBTU/HOBt/DIPEA; conditions: whole synthesis
[2] = general procedure: Fmoc solid-phase peptide synthesis; Wang resin; HBTU/HOBt/DIPEA; conditions: whole synthesis; for isolated yield: on resin loading
[3] = general procedure: Fmoc solid-phase peptide synthesis; Rink amide resin; HBTU/HOBt/DIPEA; conditions: whole synthesis, scale 165 μmol

| Substance | final HPLC purity ([1]; 220 nm) [%] | isolated yield ([2]; scale 16 μmol) [%] | isolated mass ([2]; scale 16 μmol) [mg] | final HPLC purity ([1]; 220.8 nm) [%] | isolated yield ([3]; on resin loading) [%] | isolated mass [3] [mg] | isolated yield ([2]; scale 50 μmol) [%] | isolated mass ([2]; scale 50 μmol) [mg] |
| --- | --- | --- | --- | --- | --- | --- | --- | --- |
| Gln-Arg-Pro-Arg-Leu-Ser-His-Lys-Gly-Pro-Met-Pro-Phe | >95 | 47.7 | 18.9 |  |  |  |  |  |
| CYIQNCPKG (cysteine pairing not given here) |  |  |  | >95 | 8 | 21.1 |  |  |
| Asp-Arg-Val-Tyr-Ile-His-Pro-Phe | >95 |  |  |  |  |  | 47 | 41.4 |
